Some of the results follow.
Tests used:
Assay in all cases: log2 fold change, soluble protein after heating vs DMSO (PISA); higher = thermal stabilisation; K562 lysate, 10 uM; active = over 0.2 and 3.5 SD of the protein, either way, in both replicates (recomputed)
erlotinib = compound: C#Cc1cccc(Nc2ncnc3cc(OCCOC)c(OCCOC)cc23)c1 [erlotinib]
Summary of the method: (§1)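 Log-two fold change in thermal stability relative to solvent controls is reported from duplicates. For each sample, crude K562 extract from dounce-homogenised pellets in PBS pH 7.4 with 1 mM MgCl2, at 1 mg/mL protein, was treated with 10 μM compound for 30 min. Aliquots heated for 3 min across 48°C-58°C were pooled, brought to 0.5% NP-40 at 4°C and cleared at 21,000xg for 90 min. The supernatant was quantified by TMTpro 16plex LC-MS/MS with channel sums equalised.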

By UniProt entry, the sequences of proteins in these tests, tags left out. Where a name states a change or a piece, a line headed by the entry shows the natural chain unless it says otherwise.
UniProt P50454: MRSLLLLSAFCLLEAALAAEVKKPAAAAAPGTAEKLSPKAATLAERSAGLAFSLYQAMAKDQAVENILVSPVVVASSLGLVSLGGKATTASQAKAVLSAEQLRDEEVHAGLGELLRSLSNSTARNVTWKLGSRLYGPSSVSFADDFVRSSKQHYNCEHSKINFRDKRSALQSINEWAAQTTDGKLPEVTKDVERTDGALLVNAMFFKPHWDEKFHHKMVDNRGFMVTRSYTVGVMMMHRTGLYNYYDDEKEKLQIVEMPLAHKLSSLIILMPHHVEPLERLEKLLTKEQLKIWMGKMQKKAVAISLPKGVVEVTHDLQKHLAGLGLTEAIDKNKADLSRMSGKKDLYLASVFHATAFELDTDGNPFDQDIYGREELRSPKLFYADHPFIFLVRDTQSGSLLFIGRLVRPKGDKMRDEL
UniProt Q15758: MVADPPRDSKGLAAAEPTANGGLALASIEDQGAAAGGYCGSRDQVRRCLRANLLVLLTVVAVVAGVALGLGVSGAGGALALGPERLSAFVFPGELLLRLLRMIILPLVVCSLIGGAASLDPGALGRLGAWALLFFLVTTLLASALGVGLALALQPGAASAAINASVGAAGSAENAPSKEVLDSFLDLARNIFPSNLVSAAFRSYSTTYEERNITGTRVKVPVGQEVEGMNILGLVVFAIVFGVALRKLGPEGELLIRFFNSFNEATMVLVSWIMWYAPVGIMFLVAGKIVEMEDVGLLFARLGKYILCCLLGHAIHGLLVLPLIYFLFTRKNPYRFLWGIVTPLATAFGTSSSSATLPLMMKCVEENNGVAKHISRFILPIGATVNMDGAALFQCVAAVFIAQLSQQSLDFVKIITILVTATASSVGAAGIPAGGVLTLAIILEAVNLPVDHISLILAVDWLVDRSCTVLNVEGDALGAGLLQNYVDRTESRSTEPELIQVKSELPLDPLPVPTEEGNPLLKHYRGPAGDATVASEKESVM
UniProt Q01105, whole entry, looked up: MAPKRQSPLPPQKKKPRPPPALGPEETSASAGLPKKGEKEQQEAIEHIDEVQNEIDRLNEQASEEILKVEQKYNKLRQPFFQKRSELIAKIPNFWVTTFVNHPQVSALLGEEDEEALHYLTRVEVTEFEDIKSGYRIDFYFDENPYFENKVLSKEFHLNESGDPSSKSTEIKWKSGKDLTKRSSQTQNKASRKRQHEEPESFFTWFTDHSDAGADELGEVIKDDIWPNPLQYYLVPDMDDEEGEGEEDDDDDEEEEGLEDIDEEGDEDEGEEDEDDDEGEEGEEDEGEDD
UniProt O43166: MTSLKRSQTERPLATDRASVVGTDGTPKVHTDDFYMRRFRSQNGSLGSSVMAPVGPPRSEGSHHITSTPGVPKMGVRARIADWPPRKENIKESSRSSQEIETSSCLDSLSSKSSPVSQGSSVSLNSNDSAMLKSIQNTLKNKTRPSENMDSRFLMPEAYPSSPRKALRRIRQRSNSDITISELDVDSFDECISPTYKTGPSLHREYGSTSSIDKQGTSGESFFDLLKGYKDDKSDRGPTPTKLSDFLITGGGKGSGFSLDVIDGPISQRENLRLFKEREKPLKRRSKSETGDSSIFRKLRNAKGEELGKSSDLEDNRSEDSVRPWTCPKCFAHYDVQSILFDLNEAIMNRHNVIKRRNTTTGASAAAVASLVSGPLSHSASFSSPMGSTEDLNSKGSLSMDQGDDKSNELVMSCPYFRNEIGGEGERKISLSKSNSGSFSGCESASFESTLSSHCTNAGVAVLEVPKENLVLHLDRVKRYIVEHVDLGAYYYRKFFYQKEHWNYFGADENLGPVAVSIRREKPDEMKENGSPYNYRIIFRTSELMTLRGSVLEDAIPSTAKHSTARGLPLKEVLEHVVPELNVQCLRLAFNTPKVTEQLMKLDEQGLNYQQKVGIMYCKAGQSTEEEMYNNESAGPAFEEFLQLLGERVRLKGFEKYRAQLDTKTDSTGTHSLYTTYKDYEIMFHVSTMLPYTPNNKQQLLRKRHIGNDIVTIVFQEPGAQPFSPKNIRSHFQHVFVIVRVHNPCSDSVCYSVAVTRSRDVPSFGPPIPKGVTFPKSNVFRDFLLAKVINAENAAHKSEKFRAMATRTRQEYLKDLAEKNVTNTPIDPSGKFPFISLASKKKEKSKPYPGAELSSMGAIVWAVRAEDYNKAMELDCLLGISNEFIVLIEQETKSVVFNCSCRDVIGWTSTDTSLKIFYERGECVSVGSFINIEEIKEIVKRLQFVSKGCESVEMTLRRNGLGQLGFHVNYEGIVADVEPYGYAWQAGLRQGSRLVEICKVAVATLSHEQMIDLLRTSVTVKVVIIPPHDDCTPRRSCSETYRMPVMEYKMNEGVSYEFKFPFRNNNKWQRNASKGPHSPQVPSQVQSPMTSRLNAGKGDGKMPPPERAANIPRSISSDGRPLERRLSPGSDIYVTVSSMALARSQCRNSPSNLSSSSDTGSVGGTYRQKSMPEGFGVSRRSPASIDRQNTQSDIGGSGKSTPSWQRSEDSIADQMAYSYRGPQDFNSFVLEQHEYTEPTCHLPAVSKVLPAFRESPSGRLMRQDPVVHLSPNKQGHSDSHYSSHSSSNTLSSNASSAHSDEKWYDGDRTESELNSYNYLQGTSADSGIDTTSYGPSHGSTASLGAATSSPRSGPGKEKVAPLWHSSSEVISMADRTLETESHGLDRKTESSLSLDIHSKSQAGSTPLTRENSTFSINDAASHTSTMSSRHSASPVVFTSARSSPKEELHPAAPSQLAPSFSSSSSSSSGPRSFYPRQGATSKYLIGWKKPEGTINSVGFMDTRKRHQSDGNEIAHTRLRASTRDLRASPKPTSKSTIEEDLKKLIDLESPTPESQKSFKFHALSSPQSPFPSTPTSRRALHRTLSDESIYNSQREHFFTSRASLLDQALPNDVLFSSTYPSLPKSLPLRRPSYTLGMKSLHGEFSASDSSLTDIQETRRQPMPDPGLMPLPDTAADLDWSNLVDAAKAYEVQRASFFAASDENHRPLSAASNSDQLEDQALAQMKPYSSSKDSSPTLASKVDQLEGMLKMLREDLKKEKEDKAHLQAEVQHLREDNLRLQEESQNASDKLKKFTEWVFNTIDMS
UniProt O75368: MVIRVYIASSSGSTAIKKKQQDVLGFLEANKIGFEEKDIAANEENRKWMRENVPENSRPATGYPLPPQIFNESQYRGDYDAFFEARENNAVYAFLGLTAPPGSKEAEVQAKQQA
UniProt Q9BYW2: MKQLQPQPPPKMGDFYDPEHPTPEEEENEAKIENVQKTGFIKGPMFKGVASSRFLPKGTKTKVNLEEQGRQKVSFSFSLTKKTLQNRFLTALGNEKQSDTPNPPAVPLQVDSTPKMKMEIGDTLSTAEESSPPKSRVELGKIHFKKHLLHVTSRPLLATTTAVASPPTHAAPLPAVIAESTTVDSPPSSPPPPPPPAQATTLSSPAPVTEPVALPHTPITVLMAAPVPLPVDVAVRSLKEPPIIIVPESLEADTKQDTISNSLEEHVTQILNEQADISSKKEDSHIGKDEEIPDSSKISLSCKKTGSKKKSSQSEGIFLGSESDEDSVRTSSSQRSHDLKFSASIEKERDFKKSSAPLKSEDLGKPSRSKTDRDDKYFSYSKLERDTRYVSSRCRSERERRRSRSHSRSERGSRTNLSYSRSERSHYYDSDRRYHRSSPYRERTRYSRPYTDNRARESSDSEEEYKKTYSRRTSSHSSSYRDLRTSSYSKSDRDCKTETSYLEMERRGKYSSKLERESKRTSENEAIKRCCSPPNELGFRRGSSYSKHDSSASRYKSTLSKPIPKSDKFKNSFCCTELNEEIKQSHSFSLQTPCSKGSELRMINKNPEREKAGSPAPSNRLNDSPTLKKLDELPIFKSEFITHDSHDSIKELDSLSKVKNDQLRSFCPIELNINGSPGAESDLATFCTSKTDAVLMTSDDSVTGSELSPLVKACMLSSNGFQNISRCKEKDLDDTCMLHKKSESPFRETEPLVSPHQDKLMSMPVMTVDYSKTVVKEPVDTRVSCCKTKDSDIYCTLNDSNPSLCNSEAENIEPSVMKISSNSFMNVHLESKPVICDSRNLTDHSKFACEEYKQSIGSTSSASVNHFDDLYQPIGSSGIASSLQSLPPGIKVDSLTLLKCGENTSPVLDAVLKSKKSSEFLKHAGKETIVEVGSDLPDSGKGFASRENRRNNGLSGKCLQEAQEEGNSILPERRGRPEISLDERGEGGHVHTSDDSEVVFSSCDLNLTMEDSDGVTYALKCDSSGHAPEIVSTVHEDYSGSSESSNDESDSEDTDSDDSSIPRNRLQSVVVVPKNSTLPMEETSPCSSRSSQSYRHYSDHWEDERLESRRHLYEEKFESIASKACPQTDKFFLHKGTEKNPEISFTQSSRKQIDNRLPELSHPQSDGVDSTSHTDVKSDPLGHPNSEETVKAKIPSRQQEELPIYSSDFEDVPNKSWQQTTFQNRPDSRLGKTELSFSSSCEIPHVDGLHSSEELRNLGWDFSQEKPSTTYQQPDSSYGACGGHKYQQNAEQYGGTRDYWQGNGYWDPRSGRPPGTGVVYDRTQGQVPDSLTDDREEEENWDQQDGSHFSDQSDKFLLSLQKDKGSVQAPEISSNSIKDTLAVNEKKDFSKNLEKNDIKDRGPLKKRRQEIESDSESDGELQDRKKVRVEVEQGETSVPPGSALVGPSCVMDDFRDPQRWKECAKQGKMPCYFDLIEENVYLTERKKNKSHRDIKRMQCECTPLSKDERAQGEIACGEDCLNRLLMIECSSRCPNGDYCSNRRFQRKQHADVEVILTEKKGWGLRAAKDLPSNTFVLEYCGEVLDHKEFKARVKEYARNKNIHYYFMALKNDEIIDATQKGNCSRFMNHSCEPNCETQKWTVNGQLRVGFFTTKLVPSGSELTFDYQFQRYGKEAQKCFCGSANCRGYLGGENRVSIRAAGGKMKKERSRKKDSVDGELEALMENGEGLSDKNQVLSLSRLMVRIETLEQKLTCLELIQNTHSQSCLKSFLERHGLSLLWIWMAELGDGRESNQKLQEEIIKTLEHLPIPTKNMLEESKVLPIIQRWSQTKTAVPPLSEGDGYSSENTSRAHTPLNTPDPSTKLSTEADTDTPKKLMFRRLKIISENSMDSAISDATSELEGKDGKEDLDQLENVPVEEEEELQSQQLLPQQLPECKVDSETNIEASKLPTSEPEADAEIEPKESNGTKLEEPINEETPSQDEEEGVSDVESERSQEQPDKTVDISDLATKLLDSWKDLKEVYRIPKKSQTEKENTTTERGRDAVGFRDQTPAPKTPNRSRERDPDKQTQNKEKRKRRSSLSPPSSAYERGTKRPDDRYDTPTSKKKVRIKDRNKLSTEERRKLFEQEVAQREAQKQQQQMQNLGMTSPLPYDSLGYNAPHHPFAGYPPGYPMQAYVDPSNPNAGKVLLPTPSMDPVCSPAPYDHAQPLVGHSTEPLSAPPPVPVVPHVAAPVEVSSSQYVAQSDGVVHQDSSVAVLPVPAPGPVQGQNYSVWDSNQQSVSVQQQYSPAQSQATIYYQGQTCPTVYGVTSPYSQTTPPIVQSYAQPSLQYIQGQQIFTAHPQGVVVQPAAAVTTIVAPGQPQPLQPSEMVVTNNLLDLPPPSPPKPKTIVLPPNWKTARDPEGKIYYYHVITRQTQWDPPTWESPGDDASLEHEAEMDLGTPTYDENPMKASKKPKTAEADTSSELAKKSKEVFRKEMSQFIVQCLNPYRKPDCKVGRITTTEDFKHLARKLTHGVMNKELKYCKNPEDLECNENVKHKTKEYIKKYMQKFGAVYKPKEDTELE
UniProt Q9Y371: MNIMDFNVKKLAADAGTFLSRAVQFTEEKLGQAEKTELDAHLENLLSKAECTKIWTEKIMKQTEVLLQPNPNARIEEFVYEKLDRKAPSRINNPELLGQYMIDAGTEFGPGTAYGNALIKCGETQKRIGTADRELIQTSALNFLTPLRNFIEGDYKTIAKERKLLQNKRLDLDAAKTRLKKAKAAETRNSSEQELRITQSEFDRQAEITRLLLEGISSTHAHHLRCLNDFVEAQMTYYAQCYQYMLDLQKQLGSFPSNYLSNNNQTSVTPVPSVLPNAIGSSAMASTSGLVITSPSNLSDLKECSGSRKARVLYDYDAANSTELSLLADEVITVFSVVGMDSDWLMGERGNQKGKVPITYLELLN
UniProt P53985: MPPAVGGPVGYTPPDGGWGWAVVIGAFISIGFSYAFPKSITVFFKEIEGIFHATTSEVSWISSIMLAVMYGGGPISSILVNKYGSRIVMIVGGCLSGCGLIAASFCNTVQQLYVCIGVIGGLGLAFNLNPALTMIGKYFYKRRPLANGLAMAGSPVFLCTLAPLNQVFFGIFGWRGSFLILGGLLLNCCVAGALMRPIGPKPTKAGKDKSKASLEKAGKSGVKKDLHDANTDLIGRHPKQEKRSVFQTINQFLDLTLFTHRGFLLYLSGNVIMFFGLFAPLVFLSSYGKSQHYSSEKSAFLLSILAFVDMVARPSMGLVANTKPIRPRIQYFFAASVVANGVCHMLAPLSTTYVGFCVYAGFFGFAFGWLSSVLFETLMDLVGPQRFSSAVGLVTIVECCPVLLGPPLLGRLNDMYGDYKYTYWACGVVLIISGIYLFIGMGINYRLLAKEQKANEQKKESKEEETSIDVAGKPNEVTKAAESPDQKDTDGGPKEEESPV

[1] = compound: C/C(=N\NC(=O)C1=CC(=CC=C1)S(=O)(=O)N2CCOCC2)/C3=C(C=CC(=C3)Cl)O
Summary of the method: as §1

[2] = compound: C1=CC(=CC=C1C2=NC3=C(N2)C=C(C=C3)C(=O)N)OC4=CC=C(C=C4)Cl
Summary of the method: as §1

[3] = compound: C1=CC2=C(C=CC(=C2)/C=C\3/C(=O)NC(=NCC4=CC=CS4)S3)N=C1
Summary of the method: as §1

[4] = compound: C1=CC2=NC=CN=C2C=C1/C=C/3\C(=O)NC(=O)S3
Summary of the method: as §1

[5] = compound: C1=CC=C(C=C1)C2=NC(=C(N2)C3=CC=NC=C3)C4=CC(=C(C=C4)Cl)O
Summary of the method: as §1

[6] = compound: C1=CC=C2C(=C1)C3=NNC4=CC=CC(=C43)C2=O
Summary of the method: as §1

[7] = compound: C1CCN(C1)C(=O)NC2=CC=CC(=C2)NC3=NC=C(C(=N3)NCCC4=CN=CN4)Br
Summary of the method: as §1

[8] = compound: C1CN(CCC1(CC2=CC=C(C=C2)Cl)N)C3=NC=NC4=C3C=CN4
Summary of the method: as §1

IRAK-1-4 Inhibitor I = compound: C1COCCN1CCN2C3=CC=CC=C3N=C2NC(=O)C4=CC(=CC=C4)[N+](=O)[O-] [IRAK-1-4 Inhibitor I]
Summary of the method: as §1

ibrutinib = compound: C=CC(=O)N1CCC[C@@H](n2nc(-c3ccc(Oc4ccccc4)cc3)c3c(N)ncnc32)C1 [ibrutinib]
Summary of the method: as §1

[9] = compound: CC(=O)c1cnc2ccc(-c3cc(Cl)c(O)c(Cl)c3)nc2c1N[C@H]1CC[C@H](CN(C)C)CC1
Summary of the method: as §1

ralimetinib = compound: CC(C)(C)Cn1c(N)nc2ccc(-c3[nH]c(C(C)(C)C)nc3-c3ccc(F)cc3)nc21 [ralimetinib]
Summary of the method: as §1

[10] = compound: CC(C)(O)CC(=O)NCCn1ccc2ncnc(Nc3ccc(Oc4cccc(C(F)(F)F)c4)c(Cl)c3)c21
Summary of the method: as §1

[11] = compound: CC(C)C1=C2N=C(C=C(N2N=C1)NCC3=CC=CC=C3)NCCCCCCN
Summary of the method: as §1

[12] = compound: CC1=C(C(CC(=O)N1)C2=CC=C(C=C2)C(F)(F)F)C(=O)NC3=C(C=C4C(=C3)C=NN4)F
Summary of the method: as §1

[13] = compound: CC1=C(C2=C(C=C1)C(=O)C3=CC=CC=C3N2CCCN)C
Summary of the method: as §1

[14] = compound: CC1=C(C=C(C=C1)NC(=O)C2=CC(=CC=C2)C(C)(C)C#N)NC3=CC4=C(C=C3)N=CN(C4=O)C
Summary of the method: as §1

[15] = compound: CC1=C(C=C(C=C1)NC(=O)C2=CC(=CC=C2)N(C)C)NC(=O)C3=CC=C(C=C3)O
Summary of the method: as §1

[16] = compound: CC1=CC=C(C=C1)SC2=C3C=C(SC3=CN=C2)C(=O)N
Summary of the method: as §1

Measured: log2 fold change

SERPINH1 (UniProt P50454)
inactive: erlotinib 0.016 | [1] -0.014 | [2] 0.036 | [3] -0.016 | [4] 0.005 | [5] -0.004 | [6] 0.011 | [7] 0.001 | [8] 0.032 | IRAK-1-4 Inhibitor I 0.009 | ibrutinib -0.003 | [9] -0.012 | ralimetinib -0.024 | [10] -0.028 | [11] 0 | [12] -0.022 | [13] 0.004 | [14] -0.004 | [15] -0.006 | [16] -0.004

SF1 isoform 6 (UniProt Q15637)
inactive: erlotinib 0.047 | [1] -0.052 | [2] -0.013 | [3] -0.094 | [4] 0.003 | [5] -0.349 | [6] 0.02 | [7] -0.011 | [8] 0.016 | IRAK-1-4 Inhibitor I 0.13 | ibrutinib 0.057 | [9] 0.042 | ralimetinib -0.073 | [10] -0.022 | [11] -0.008 | [12] 0.197 | [13] -0.061 | [15] 0.044 | [16] -0.008

SLC1A5 (UniProt Q15758)
inactive: erlotinib -0.009 | [1] -0.013 | [2] 0.013 | [3] 0.002 | [4] -0.002 | [5] -0.012 | [6] 0.034 | [7] -0.001 | [8] 0.017 | IRAK-1-4 Inhibitor I 0.015 | ibrutinib 0.006 | [9] -0.002 | ralimetinib -0.021 | [10] -0.024 | [11] -0.015 | [12] -0.002 | [13] -0.009 | [14] 0.019 | [15] 0.001 | [16] -0.003

SF3B6 (UniProt Q9Y3B4)
inactive: erlotinib 0.011 | [1] 0.047 | [2] 0 | [3] 0.001 | [4] 0.043 | [5] 0.034 | [6] 0.044 | [7] 0.004 | [8] -0.034 | IRAK-1-4 Inhibitor I -0.024 | ibrutinib 0.036 | [9] 0.004 | ralimetinib -0.001 | [10] -0.017 | [11] -0.002 | [12] 0.043 | [13] 0.003 | [14] 0.002 | [15] 0.024 | [16] -0.007

SET isoform 2 (UniProt Q01105)
inactive: erlotinib -0.004 | [1] -0.029 | [2] 0.027 | [3] -0.052 | [4] 0.016 | [5] -0.004 | [6] 0.024 | [7] 0.027 | [8] 0.006 | IRAK-1-4 Inhibitor I 0.006 | ibrutinib -0.055 | [9] -0.001 | ralimetinib -0.027 | [10] -0.037 | [11] 0.012 | [12] -0.049 | [13] 0.014 | [14] 0.026 | [15] -0.023 | [16] -0.022

SIPA1L1 (UniProt O43166)
inactive: erlotinib 0.02 | [1] -0.161 | [2] -0.001 | [3] -0.022 | [4] -0.043 | [5] -0.061 | [6] 0.021 | [7] 0.022 | [8] 0.058 | IRAK-1-4 Inhibitor I -0.052 | ibrutinib -0.009 | [9] -0.098 | ralimetinib -0.001 | [10] -0.017 | [11] 0.047 | [12] -0.053 | [14] 0.208 | [15] 0.009 | [16] -0.054

SHC1 isoform 6 (UniProt P29353)
inactive: erlotinib 0.029 | [1] -0.024 | [2] 0.05 | [3] 0.035 | [4] 0.04 | [5] 0.011 | [6] -0.043 | [7] -0.005 | [8] 0.001 | IRAK-1-4 Inhibitor I 0.012 | ibrutinib 0.053 | [9] -0.007 | ralimetinib -0.02 | [10] -0.041 | [11] -0.007 | [12] -0.016 | [13] -0.006 | [14] -0.004 | [15] 0.002 | [16] -0.008

SLC12A6 (UniProt Q9UHW9)
inactive: erlotinib -0.014 | [1] -0.073 | [2] -0.047 | [3] 0.013 | [4] -0.006 | [5] -0.028 | [6] -0.01 | [7] -0.024 | [8] 0.068 | IRAK-1-4 Inhibitor I -0.01 | ibrutinib 0.01 | [9] -0.021 | ralimetinib -0.037 | [10] -0.014 | [11] 0.011 | [12] 0.001 | [13] -0.012 | [14] 0.012 | [15] 0.024 | [16] -0.021

SH3BGRL (UniProt O75368)
inactive: erlotinib 0.01 | [1] 0.021 | [2] 0.03 | [3] 0.001 | [4] -0.028 | [5] 0.023 | [6] 0.015 | [7] -0.026 | [8] 0.012 | IRAK-1-4 Inhibitor I 0.016 | ibrutinib 0.063 | [9] -0.029 | ralimetinib -0.016 | [10] -0.045 | [11] -0.005 | [12] -0.023 | [13] -0.036 | [14] 0.023 | [15] -0.018 | [16] -0.017

SETD2 (UniProt Q9BYW2)
inactive: erlotinib 0.08 | [1] 0.188 | [2] 0.126 | [3] -0.084 | [4] -0.14 | [5] 0.011 | [6] 0.088 | [7] -0.003 | [8] -0.012 | IRAK-1-4 Inhibitor I 0.042 | ibrutinib 0.045 | [9] 0.002 | ralimetinib 0.021 | [10] -0.018 | [11] 0.054 | [12] 0.039 | [13] -0.036 | [14] 0.018 | [15] -0.001 | [16] 0.013

SH3GLB1 isoform 2 (UniProt Q9Y371)
inactive: erlotinib 0.05 | [1] -0.001 | [2] 0.022 | [3] -0.025 | [4] -0.071 | [5] 0.002 | [6] 0.013 | [7] -0.028 | [8] -0.036 | IRAK-1-4 Inhibitor I -0.008 | ibrutinib 0.049 | [9] 0.009 | ralimetinib 0.016 | [10] 0.028 | [11] 0.024 | [12] 0.047 | [13] 0.008 | [14] -0.024 | [15] -0.002 | [16] -0.017

SH3BP5L (UniProt Q7L8J4)
inactive: erlotinib 0.001 | [1] -0.156 | [2] 0.004 | [3] -0.058 | [4] -0.032 | [5] 0.003 | [6] 0.065 | [7] -0.019 | [8] 0 | IRAK-1-4 Inhibitor I 0 | ibrutinib 0.007 | [9] 0.013 | ralimetinib -0.024 | [10] -0.035 | [11] 0.032 | [12] 0.009 | [13] -0.02 | [14] 0.021 | [15] -0.017 | [16] -0.045

SLC16A1 (UniProt P53985)
inactive: erlotinib -0.007 | [1] -0.038 | [2] 0.036 | [3] 0.029 | [4] -0.018 | [5] 0.034 | [6] 0.034 | [7] -0.024 | [8] 0.004 | IRAK-1-4 Inhibitor I 0.032 | ibrutinib -0.023 | [9] 0.002 | ralimetinib 0.015 | [10] 0.015 | [11] 0.003 | [12] -0.039 | [13] -0.03 | [14] 0.042 | [15] 0 | [16] -0.006

Two records drawn at random from those above, as already listed:
SH3BGRL (UniProt O75368)
inactive: erlotinib 0.01 | [1] 0.021 | [2] 0.03 | [3] 0.001 | [4] -0.028 | [5] 0.023 | [6] 0.015 | [7] -0.026 | [8] 0.012 | IRAK-1-4 Inhibitor I 0.016 | ibrutinib 0.063 | [9] -0.029 | ralimetinib -0.016 | [10] -0.045 | [11] -0.005 | [12] -0.023 | [13] -0.036 | [14] 0.023 | [15] -0.018 | [16] -0.017

SLC16A1 (UniProt P53985)
inactive: erlotinib -0.007 | [1] -0.038 | [2] 0.036 | [3] 0.029 | [4] -0.018 | [5] 0.034 | [6] 0.034 | [7] -0.024 | [8] 0.004 | IRAK-1-4 Inhibitor I 0.032 | ibrutinib -0.023 | [9] 0.002 | ralimetinib 0.015 | [10] 0.015 | [11] 0.003 | [12] -0.039 | [13] -0.03 | [14] 0.042 | [15] 0 | [16] -0.006

Going on with the list.

SKA2 (UniProt Q8WVK7)
inactive: erlotinib -0.006 | [1] -0.058 | [2] 0.014 | [3] -0.011 | [4] -0.042 | [5] 0.001 | [6] -0.081 | [7] -0.006 | [8] -0.019 | IRAK-1-4 Inhibitor I -0.056 | ibrutinib 0.037 | [9] 0.004 | ralimetinib 0.016 | [10] -0.003 | [11] 0.014 | [12] -0.004 | [13] 0.032 | [14] -0.099 | [15] -0.011 | [16] -0.03

SERGEF (UniProt Q9UGK8)
inactive: erlotinib 0.082 | [1] 0.11 | [2] 0.03 | [3] 0.041 | [4] -0.029 | [5] 0.063 | [6] 0.131 | [7] -0.025 | [8] 0.017 | IRAK-1-4 Inhibitor I 0.002 | ibrutinib -0.009 | [9] 0.016 | ralimetinib -0.154 | [10] 0.026 | [11] 0.01 | [12] 0.005 | [13] 0.002 | [14] -0.019 | [15] 0.058 | [16] -0.005

SERPINB9 (UniProt P50453)
inactive: erlotinib -0.013 | [1] 0.028 | [2] 0.025 | [3] -0.014 | [4] -0.017 | [5] -0.008 | [6] 0.01 | [7] 0.002 | [8] 0.002 | IRAK-1-4 Inhibitor I -0.013 | ibrutinib 0.038 | [9] -0.015 | ralimetinib 0.009 | [10] 0.005 | [11] -0.011 | [12] -0.019 | [13] 0.023 | [14] 0.025 | [15] -0.001 | [16] -0.016

— the supplement of paper PMC10849652
